Consider one molecule from patent publication US20230210968A1, “RIBONUCLEOPROTEIN APPROACH TO BOOST THE STING SIGNALING FOR CANCER IMMUNOTHERAPY” (MASSACHUSETTS INSTITUTE OF TECHNOLOGY, priority 2020, published 2023).

The series is described as follows: FPLC analysis of cGAMP-induced self-assembly (tetramerization). The note with it: PBS, increasing molar ratios of cGAMP.

B1: mSTINGΔTM (mouse STING amino acids 138-378) (other)
chain: LTPAEVSAVCEEKKLNVAHGLAWSYYIGYLRLILPGLQARIRMFNQLHNNMLSGAGSRRLYILFPLDCGVPDNLSVVDPNIRFRDMLPQQNIDRAGIKNRVYSNSVYEILENGQPAGVCILEYATPLQTLFAMSQDAKAGFSREDRLEQAKLFCRTLEEILEDVPESRNNCRLIVYQEPTDGNSFSLSQEVLRHIRQEEKEEVTMNAPMTSVAPPPSVLSQEPRLLISGMDQPLPLRTDLI
notes: Runs as a dimer (~60 kDa) without cGAMP and as a tetramer (~120 kDa) with cGAMP; Entries with this molecule as both partners are self-association; also called mouse STINGΔTM; recombinant transmembrane-deficient STING
As for B1, the “self-assembly on titration with cGAMP (FPLC)” value is “transition to a tetrameric conformation”.
